Results are given as percent effect.
The record does not define 0% and 100%; most values in the screen are far below 50% and negative numbers occur (in some assays of this library far below -100).
This is an unselected part of the compounds tested.
Two or more numbers in one place are separate tests of the same structure; such repeats can differ widely.
A dash means the value is not listed here; it may have been measured.

Chains of the proteins cited; added tags and fusions are not shown. Residues count along the entry.
UniProt P9WPC5, whole entry: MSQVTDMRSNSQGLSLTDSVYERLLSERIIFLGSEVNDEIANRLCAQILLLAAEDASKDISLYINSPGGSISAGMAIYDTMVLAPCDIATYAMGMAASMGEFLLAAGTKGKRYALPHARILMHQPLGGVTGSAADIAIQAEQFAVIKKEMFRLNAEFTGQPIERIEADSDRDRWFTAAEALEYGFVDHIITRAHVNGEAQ
UniProt P9WPC3, whole entry partner: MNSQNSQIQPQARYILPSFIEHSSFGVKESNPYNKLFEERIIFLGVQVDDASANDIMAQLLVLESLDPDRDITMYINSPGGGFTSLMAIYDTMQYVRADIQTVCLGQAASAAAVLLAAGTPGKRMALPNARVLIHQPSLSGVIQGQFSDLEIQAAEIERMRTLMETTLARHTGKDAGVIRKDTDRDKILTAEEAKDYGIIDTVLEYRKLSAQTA
UniProt Q8IDJ8, 1-583: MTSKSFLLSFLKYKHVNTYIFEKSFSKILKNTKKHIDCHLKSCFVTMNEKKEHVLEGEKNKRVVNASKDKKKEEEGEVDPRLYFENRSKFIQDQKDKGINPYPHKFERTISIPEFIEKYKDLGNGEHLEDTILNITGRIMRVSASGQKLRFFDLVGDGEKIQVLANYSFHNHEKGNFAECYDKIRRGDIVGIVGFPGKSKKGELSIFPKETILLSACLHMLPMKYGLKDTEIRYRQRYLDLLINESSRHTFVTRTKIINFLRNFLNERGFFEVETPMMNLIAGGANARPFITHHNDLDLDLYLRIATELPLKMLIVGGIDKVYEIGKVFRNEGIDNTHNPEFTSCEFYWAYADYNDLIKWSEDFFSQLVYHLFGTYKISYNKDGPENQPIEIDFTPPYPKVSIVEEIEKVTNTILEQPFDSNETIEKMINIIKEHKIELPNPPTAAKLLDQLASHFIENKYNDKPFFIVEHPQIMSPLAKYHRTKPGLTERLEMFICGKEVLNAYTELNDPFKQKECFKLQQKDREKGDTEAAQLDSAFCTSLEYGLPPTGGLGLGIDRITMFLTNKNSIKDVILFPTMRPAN

Leishmania in macrophages: 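Cell assay of Leishmania donovani living inside macrophages; the read-out is not stated. Concentration: 30 µM. Higher reads as stronger inhibition (inferred: compounds with an IC50 in retests scored well above the rest). Of about 69,000 compounds tested this way, about 1,000 (1.5%) reached 50% or more in at least one test.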
ClpP1P2: 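Protease assay of ClpP1P2, read by the AMC dye that it sets free. Target: ClpP1P2, Mycobacterium tuberculosis (UniProt P9WPC5 and UniProt P9WPC3). Concentration: 50 µM. Higher reads as stronger inhibition, judged from the few compounds that gave an IC50. Most other retested compounds had strongly negative values. Of about 69,000 compounds tested this way, about 10 (0.015%) reached 50% or more in at least one test.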
Toxoplasma: 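Assay of Toxoplasma gondii numbers, read through their beta-galactosidase reporter with a colour substrate. Tested at 10 µM. The record gives no direction; the compounds picked for IC50 retests had high values, so higher reads as fewer parasites. Of about 67,000 compounds tested this way, about 260 (0.38%) reached 50% or more in at least one test.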
PfKRS1: 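Enzyme assay of the cytosolic lysyl-tRNA synthetase in 384-well plates, read by luminescence. Target: Lysine-tRNA ligase, Plasmodium falciparum 3D7 (UniProt Q8IDJ8). Tested at 30 µM. Higher reads as stronger inhibition, judged from the few compounds that gave an IC50. About 69,000 compounds were tested under these conditions; 0.071% (about 49) showed 50% or more at least once.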

structure	Leishmania in macrophages	ClpP1P2	Toxoplasma	PfKRS1
CC(NCc1cnc(N2CCOCC2)s1)c1ccc(Cl)s1 (centres unmarked)	12.63	-2.72	-17.95	2.843
O=C1N(CC2CCC2)CCCC12CCN(S(=O)(=O)c1cccnc1)C2 (centres unmarked)	9.464	5.781	16.24	-0.9765
COc1ccc(COCC(O)CNC(=O)c2ccncc2)cc1 (centres unmarked)	10.27	-2.822	-19.73	2.186
CCn1ccnc1CN1CCN(C(C)C(=O)N2CCCCCC2)CC1 (centres unmarked)	17.36	-15.7	6.789	2.694
CCC(C(=O)NCc1ccncc1)N(c1ccc(OC)cc1)S(C)(=O)=O (centres unmarked)	7.009	-10.66	-0.8811	-0.5784
CCc1ccccc1OCC(=O)Nc1ccnc(OCCN(C)C)c1	28.46	7.885	0.2378	10.26
CNC(=O)NCc1nn(-c2ccccc2)c2c1CCC2	10.89	-40.7	-12.49	1.694
Cc1ccc(C)c(CN(CC(N)=O)C(C)C)c1	3.423	-2.144	3.557	5.636
CCCc1nc(C)cc(N2CCNC(C(=O)NCc3cccnc3)C2)n1 (centres unmarked)	-39	12.33	-14.29	4.398
Cc1nc([C@@H]2C[C@@H]3CCN(C(=O)Cc4ccsc4)C[C@H]3O2)no1	-	-7.522	-	1.045
CC(C)c1nccc([C@H]2C[C@@H]3CCN(Cc4ccco4)C[C@H]3O2)n1	-	-5.955	-	-2.256
Cc1c(CS(C)(=O)=O)cccc1NC(=O)CC1CCCC1	14.7	-6.64	5.67	4.875
COc1cccc(CNc2c(C)nn(C(C)C)c2C)c1.Cl	18.03	-	-5.988	-
CN(C)[C@@H]1CCN(c2ncccn2)[C@H]1Cc1ccncc1	-	-0.1144	-	2.823
Cc1c(C(=O)N2CC(C)(C)C2(C)C)nnn1-c1cccc2cnccc12	6.534	2.014	-1.617	5.939
NC(=O)c1cc(C2CCCN(C(=O)CCc3ccsc3)C2)n[nH]1 (centres unmarked)	-4.448	2.202	0.7411	0.4289
CCn1cc(S(=O)(=O)N2CCN(C(=O)c3cc(Br)cs3)CC2)c(C)n1	-7.837	-7.496	11.93	2.594
Cc1cc(CN2CC[C@H]3OCC[C@@]3(C(=O)NC(C)C)C2)no1	-	-4.171	-	2.33
Cc1cnn(C2CN(CC(=O)NCCc3ccsc3)C2)c1	26.69	-15.24	-34.65	-0.05292
Fc1ccc(NCc2ncc[nH]2)cc1Br	-8.749	-8.306	-5.648	-0.06202
COC1(CNC(=O)NCCOc2ccccc2)CCSC1 (centres unmarked)	14.78 and 20.39	-7.145	-3.298	2.725
[H][C@]12CCN(C(C)=O)[C@@]1([H])CC[C@H](COCC(=O)N1CCCC1)O2	10.47	-	6.731	-
Cc1cccc(CN2CCOC3(CCCN(CC(=O)N(C)C)C3)C2)n1.O=C(O)C(F)(F)F.O=C(O)C(F)(F)F (centres unmarked)	8.36	-	0.448	-
Cn1c(C(=O)N(CC(N)=O)C2CCCC2)cc(Cl)c1Cl	10.47	-2.903	-4.223	3.973
Cc1nc(C)n(CC2CCCN2Cc2cccc3c2OCCO3)n1 (centres unmarked)	41.33	-8.534	-9.935	5.49
CCC[C@H]1CN(S(=O)(=O)c2ccc(Cl)cc2)C[C@@H]1NC(C)=O	20.17	-15.96	-5.763	-0.7272
Cc1cc(CNc2ccc(C(=O)N3CCc4ccccc43)cn2)on1	5.148	3.647	1.155	-0.8841
c1cncc(CN(Cc2ccc3c(c2)OCCO3)CC2CCCO2)c1 (centres unmarked)	-23.27	11.45	-1.249	6.037
CCN(CC)S(=O)(=O)c1cc(NC(=O)CCc2cscn2)ccc1C	23.82	-2.762	-0.06242	5.324
Cc1noc(C)c1CN1CCn2c(CN3CCN(C)CC3)cnc2C1.O=C(O)C(F)(F)F.O=C(O)C(F)(F)F.O=C(O)C(F)(F)F	14.7	-	-3.093	-
C[C@@H]1CN(S(=O)(=O)N2CCCCCC2)C[C@@]1(O)C1CCC1	-2.624	-16.11	15.5	0.3465
Cc1cc(CN2C[C@@H]3CCCO[C@@H]3[C@H](N(C)C(C)C)C2)no1	-	-0.6447	-	2.709
Cc1cc(C)n(CC(=O)N2CCC(c3nc(C(C)C)no3)CC2)n1	41.13	1.575	6.128	5.501
CCN1CCN(C2CCN(Cc3nc(-c4ccoc4)no3)CC2)C1=O	-2.301	3.493	1.694	-0.4985
Cc1cc(CN(C)C(=O)NCc2ccnc(N(C)C)c2)no1	13.56	5.634	6.522	5.749
Cc1c(C(=O)N2CC(Cc3nccc4ccn(C)c34)C2)cnn1C	18.56	-9.701	3.321	0.5248
CCCN1CCN(C(=O)c2cccc3cccnc23)[C@H]2CS(=O)(=O)C[C@H]21	-	5.53	-	-0.3615
O=C(NCc1ccc2c(c1)OCO2)c1ccc(N2CCCCC2)nn1	-5.672 and 16.64	2.67	-1.011	-0.6001
Cn1cc(N2CCCC(SCc3nc(C4CC4)no3)C2=O)cn1 (centres unmarked)	-11.33	-8.953	-27.2	1.062
NC(=O)C1CCCN1CCCc1ccc(Cl)cc1 (centres unmarked)	-13.96	-8.354	9.142	-1.479
CN(C)C(=O)CS(=O)(=O)Cc1cc(Cl)c2c(c1)OCO2	24.03	3.692	-5.21	6.128
Cc1csc(CCCNC(C)CC(=O)Nc2ccc(F)cc2)n1 (centres unmarked)	7.336	-9.874	-0.9091	2.879
CN(CCc1ccncc1)C(=O)c1sccc1OC(F)F	7.819	-1.103	10.47	3.522
COC[C@@H]1CCC[C@@]12CN(Cc1ccco1)CCO2.O=C(O)C(F)(F)F	-6.132	-	-11.03	-
CN1CCN(c2ncnc3c2CCN(Cc2nccn2C)CC3)CC1	-5.432	-3.952	-3.245	1.414
CCOCC1CN(CC2CC2)Cc2nn(CC3CC3)cc21 (centres unmarked)	-	-14.14	-	4.613
CNC(=O)C1Cn2ccnc2C2(CCN(c3ccc(C)nn3)CC2)O1 (centres unmarked)	-0.5048	-5.082	7.324	4.813
COc1ccc(-c2cc(C[C@@H]3C[C@H](N(C)C)C3(C)C)no2)cc1	12.19	-23.43	3.545	0.02477
Cc1cccc(OCC2CCCN(C(=O)Cn3ccccc3=O)C2)c1 (centres unmarked)	29.4	-6.268	31.45	-2.573
CN(C)C(=O)CN1CCCC(Cc2ccc(N3CCCC3)nn2)C1 (centres unmarked)	16.37 and 11.21	10.35	-0.9474	-1.559
COCC(=O)NC[C@H]1C[C@@H]2CCN1C[C@@H]2c1cc(-c2cccs2)nn1C	-	-16.69	-	6.712
CN1CCCC1CCNC(=O)Nc1ccccc1 (centres unmarked)	15.35	-5.64	20.52	2.723
Cc1ncccc1C(=O)Nc1cccc(C[S+](C)[O-])c1C (centres unmarked)	32.82	-1.248	25.59	2.126
CC1CCc2[nH]c(=O)c(C(=O)N3CCc4ccccc4C3)cc2C1 (centres unmarked)	28.42	-10.61	-10.92	7.907
Cc1ccc(CN2C[C@@H]3COC[C@@H](NS(C)(=O)=O)[C@@H]3C2)o1	-	3.279	-	1.281
CC[C@H](C)[C@H](NC(=O)c1cccc(-n2cnnn2)c1)C(=O)OC	42.73	-15.58	9.838	7.239
O=S(=O)(CCN1CCCCC1Cn1cncn1)c1ccccc1 (centres unmarked)	-1.207	14.81	34.22	-0.7503
CN(Cc1ccco1)[C@@H]1CN(Cc2cccnc2)[C@@H]2CCCO[C@H]12	-	-9.875	-	1.59
O=C(NCCC1=CCCCC1)C1CCN(c2ccc3nncn3n2)CC1	-7.311	1.745	1.287	-0.1638
Cc1nc2c(c(=O)[nH]1)CN(C(=O)CC[C@@H]1CCCN3CCCC[C@H]13)C2	-	0.3404	-	3.14
CN1CCCN(C(=O)NCc2csc(Br)c2)CC1	19.22	4.793	0.2154	1.171
Cn1nc2c(cc1=O)CN(Cc1nc(-c3ccco3)no1)CC2	-0.4243	-37.32	-10.96	5.023
CNC(=O)NC(=O)CN1CCN(c2ccc(C(=O)OC)cc2)CC1C (centres unmarked)	15.8	-28.58	-9.306	0.04727

Repeated from the top, 5 entries:

structure	Leishmania in macrophages	ClpP1P2	Toxoplasma	PfKRS1
CC(NCc1cnc(N2CCOCC2)s1)c1ccc(Cl)s1 (centres unmarked)	12.63	-2.72	-17.95	2.843
O=C1N(CC2CCC2)CCCC12CCN(S(=O)(=O)c1cccnc1)C2 (centres unmarked)	9.464	5.781	16.24	-0.9765
COc1ccc(COCC(O)CNC(=O)c2ccncc2)cc1 (centres unmarked)	10.27	-2.822	-19.73	2.186
CCn1ccnc1CN1CCN(C(C)C(=O)N2CCCCCC2)CC1 (centres unmarked)	17.36	-15.7	6.789	2.694
CCC(C(=O)NCc1ccncc1)N(c1ccc(OC)cc1)S(C)(=O)=O (centres unmarked)	7.009	-10.66	-0.8811	-0.5784

Measurements from “University of Dundee, Small-Polar-MMV Screening Library” (2021), ChEMBL document CHEMBL3988442.